Measured values from the supplement of paper PMC10849652.
The list shows a part of the results.

Sequences of proteins named here, by UniProt entry; tags and fusion partners are left off. A change or cut given only in a name is not applied to a line headed by its entry.
UniProt O00629, whole entry, looked up: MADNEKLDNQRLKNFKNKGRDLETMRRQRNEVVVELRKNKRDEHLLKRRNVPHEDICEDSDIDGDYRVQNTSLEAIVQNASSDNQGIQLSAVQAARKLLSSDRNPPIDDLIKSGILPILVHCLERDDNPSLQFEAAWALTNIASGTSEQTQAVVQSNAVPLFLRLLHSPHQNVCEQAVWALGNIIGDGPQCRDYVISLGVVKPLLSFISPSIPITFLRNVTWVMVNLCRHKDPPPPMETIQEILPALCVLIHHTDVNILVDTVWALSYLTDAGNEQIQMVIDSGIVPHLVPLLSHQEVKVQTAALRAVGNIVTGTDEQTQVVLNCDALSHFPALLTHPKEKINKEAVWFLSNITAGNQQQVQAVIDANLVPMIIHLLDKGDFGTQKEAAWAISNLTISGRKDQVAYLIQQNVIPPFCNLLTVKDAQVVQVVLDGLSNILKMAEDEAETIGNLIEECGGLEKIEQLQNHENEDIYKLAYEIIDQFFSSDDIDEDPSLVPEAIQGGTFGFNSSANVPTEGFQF
UniProt P24390: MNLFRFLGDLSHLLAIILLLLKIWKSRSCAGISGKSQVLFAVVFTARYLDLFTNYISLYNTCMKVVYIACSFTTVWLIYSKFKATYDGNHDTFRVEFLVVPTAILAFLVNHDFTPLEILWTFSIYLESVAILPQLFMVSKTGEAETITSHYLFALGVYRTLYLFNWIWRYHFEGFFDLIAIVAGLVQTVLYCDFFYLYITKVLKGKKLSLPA
UniProt O15554, whole entry, looked up: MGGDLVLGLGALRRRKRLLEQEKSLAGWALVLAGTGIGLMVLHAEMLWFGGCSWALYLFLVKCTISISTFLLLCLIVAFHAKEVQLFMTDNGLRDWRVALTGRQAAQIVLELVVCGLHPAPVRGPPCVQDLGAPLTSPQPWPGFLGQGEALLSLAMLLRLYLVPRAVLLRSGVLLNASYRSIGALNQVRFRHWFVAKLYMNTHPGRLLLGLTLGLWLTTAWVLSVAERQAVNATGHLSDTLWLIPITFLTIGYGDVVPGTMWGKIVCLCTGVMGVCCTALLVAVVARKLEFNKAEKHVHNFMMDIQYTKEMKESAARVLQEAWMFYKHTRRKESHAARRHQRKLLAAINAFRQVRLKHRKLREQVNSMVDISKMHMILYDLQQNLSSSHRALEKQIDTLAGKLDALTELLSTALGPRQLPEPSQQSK
UniProt P52294, whole entry, looked up: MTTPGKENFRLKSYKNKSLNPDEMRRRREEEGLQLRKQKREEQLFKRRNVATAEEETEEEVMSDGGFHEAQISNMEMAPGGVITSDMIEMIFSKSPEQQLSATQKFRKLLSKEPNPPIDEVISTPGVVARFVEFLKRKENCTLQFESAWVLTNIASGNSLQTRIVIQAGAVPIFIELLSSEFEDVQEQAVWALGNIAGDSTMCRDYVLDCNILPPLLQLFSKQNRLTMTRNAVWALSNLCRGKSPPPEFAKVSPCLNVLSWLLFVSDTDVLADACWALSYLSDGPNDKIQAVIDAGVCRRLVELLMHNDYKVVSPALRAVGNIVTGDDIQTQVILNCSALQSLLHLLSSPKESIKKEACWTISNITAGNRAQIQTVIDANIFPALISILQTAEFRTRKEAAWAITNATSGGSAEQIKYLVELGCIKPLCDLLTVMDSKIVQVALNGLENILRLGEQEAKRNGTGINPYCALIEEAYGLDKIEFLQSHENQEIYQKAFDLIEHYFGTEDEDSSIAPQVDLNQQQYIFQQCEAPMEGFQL
UniProt Q9ULI4: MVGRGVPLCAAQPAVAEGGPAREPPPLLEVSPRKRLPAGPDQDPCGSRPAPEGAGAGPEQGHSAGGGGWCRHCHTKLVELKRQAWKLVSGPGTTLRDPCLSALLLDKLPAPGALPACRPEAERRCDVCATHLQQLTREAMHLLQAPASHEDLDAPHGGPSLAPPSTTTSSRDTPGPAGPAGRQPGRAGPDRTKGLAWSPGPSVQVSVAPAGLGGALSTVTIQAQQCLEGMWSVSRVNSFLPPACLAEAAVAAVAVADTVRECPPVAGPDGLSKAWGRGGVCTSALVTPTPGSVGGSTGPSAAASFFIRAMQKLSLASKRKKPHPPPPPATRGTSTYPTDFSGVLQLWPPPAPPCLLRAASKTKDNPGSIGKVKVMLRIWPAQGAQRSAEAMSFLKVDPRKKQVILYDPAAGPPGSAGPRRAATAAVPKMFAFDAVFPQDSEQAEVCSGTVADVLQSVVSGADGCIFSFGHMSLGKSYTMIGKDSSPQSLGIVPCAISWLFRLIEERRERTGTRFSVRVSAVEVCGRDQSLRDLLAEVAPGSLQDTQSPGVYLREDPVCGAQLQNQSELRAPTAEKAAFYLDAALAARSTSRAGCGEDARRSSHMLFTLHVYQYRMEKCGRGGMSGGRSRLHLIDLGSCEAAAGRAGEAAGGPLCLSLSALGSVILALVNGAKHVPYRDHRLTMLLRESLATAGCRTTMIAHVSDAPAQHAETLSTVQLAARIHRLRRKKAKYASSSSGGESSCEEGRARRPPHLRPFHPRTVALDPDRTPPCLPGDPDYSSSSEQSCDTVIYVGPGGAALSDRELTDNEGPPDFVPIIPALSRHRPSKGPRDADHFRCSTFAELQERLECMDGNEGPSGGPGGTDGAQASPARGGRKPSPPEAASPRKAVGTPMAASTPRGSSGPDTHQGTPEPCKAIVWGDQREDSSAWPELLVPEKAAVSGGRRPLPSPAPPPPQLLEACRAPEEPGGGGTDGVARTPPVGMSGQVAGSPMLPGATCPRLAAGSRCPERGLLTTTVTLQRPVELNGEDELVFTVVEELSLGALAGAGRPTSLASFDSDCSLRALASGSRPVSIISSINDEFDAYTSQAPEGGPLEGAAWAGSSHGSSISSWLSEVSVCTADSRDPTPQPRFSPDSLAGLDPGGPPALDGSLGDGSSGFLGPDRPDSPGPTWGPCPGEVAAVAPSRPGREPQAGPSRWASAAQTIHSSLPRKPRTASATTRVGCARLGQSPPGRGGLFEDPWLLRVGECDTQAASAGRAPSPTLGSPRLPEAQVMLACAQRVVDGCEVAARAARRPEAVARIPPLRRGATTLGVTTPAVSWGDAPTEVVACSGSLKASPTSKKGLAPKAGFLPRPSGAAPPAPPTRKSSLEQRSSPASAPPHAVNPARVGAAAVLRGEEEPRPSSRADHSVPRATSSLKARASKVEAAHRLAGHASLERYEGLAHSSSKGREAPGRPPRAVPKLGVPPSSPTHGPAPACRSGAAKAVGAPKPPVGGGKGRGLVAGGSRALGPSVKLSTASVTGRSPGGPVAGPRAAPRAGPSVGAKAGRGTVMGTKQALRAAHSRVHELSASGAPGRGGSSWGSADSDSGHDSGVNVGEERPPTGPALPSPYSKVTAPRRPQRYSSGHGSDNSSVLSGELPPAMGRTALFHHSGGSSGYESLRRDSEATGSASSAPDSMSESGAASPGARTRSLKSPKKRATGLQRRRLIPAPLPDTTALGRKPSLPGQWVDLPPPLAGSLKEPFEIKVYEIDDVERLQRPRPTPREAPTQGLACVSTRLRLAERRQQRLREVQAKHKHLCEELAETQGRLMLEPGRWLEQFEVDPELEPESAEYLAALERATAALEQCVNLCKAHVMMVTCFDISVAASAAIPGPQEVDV
UniProt Q14145, whole entry, looked up: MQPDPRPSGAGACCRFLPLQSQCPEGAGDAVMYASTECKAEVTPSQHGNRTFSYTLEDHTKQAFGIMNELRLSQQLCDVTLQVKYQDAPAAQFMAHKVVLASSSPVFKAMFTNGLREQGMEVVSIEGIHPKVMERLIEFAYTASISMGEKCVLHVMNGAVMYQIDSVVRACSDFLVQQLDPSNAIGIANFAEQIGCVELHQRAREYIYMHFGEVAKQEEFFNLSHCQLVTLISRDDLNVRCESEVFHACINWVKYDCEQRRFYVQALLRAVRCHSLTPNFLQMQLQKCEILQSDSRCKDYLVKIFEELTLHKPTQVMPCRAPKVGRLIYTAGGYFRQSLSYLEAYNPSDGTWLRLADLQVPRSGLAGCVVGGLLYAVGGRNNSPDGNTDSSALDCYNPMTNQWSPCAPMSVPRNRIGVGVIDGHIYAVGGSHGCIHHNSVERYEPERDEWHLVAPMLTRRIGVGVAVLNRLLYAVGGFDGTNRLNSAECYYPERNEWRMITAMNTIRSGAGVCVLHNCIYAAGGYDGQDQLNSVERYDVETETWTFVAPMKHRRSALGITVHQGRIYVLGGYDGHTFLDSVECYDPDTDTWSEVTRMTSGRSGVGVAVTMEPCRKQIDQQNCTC
UniProt Q7L273: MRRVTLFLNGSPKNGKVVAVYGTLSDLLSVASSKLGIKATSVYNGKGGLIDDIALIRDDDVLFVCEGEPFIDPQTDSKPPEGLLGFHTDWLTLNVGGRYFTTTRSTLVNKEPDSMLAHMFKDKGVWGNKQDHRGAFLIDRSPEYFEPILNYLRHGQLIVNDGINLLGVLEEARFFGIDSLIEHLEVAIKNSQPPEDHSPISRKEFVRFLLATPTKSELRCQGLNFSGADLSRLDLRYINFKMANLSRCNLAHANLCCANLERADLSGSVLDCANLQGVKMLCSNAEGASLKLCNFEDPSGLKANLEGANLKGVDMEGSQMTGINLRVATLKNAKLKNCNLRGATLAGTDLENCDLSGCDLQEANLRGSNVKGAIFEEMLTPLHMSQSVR
UniProt Q9NVX7: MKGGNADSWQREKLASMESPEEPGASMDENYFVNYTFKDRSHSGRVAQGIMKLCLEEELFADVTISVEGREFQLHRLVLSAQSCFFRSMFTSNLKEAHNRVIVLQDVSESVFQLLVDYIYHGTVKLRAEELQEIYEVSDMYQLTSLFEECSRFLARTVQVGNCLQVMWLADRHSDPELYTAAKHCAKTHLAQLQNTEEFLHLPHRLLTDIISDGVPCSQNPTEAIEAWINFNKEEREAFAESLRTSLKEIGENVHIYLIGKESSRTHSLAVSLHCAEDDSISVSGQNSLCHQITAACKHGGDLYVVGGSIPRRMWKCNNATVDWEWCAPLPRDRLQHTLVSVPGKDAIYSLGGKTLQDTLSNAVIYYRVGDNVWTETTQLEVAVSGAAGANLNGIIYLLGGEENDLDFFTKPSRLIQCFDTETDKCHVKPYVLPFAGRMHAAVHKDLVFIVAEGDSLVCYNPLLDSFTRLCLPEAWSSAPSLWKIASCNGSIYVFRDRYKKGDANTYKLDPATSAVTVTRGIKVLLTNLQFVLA
UniProt Q02241: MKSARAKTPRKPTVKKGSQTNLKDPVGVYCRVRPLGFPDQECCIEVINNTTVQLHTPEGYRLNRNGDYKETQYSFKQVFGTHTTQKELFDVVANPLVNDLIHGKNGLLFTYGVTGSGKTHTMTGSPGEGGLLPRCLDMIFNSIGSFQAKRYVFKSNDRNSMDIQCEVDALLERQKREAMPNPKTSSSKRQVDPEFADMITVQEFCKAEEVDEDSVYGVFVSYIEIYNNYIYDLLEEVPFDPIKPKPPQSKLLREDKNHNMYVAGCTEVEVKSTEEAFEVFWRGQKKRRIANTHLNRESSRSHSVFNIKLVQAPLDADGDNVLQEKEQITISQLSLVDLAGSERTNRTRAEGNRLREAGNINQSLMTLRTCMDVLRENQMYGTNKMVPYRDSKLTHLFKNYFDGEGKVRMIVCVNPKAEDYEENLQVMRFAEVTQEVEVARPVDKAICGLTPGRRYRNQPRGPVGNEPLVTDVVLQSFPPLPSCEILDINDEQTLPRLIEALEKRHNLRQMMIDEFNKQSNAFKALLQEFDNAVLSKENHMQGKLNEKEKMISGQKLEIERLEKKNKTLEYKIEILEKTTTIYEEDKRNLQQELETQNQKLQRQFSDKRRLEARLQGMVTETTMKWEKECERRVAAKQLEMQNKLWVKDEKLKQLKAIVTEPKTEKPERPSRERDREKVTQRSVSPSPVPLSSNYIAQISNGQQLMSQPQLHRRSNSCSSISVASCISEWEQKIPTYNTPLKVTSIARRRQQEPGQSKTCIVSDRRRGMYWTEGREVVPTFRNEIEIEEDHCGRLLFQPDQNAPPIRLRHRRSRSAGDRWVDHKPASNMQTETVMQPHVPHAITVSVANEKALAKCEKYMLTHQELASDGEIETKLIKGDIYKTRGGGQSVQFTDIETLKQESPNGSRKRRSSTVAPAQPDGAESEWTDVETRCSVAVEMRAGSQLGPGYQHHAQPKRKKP
UniProt Q96A73: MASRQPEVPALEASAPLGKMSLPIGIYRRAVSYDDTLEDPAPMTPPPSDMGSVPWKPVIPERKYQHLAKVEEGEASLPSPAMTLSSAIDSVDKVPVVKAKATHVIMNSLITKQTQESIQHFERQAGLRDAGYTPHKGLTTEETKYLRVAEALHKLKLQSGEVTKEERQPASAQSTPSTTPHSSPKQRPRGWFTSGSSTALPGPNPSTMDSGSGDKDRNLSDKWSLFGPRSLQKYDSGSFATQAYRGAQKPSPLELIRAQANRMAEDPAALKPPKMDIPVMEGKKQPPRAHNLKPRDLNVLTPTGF

Legend:
Test in all cases: log2 fold change, soluble protein after heating vs DMSO (PISA); higher = thermal stabilisation; K562 cells, 10 uM, 30 min; active = over 0.2 and 3.5 SD of the protein, either way, in both replicates (recomputed)
[1] = compound: CC1=C(C=C(C=C1)NC(=O)C2=CC(=CC=C2)C(C)(C)C#N)NC3=CC4=C(C=C3)N=CN(C4=O)C
Procedure, shortened: (§1)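 K562 cells at 2×10^6 cells/mL were treated for 30 min with 10 μM compound, and aliquots were heated for 3 min over 48°C-58°C before pooling. Extraction used PBS with 0.5% NP-40 at 4°C, and soluble protein was the supernatant after 21,000xg for 90 min, measured by TMTpro 16plex LC-MS/MS with channel sums equalised. Thermal stability values, relative to control samples and from duplicates, are log2 fold changes.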

[2] = compound: CC1=C(C=C(C=C1)NC(=O)C2=CC(=CC=C2)N(C)C)NC(=O)C3=CC=C(C=C3)O
Procedure, shortened: as §1

[3] = compound: CC1=CC=C(C=C1)SC2=C3C=C(SC3=CN=C2)C(=O)N
Procedure, shortened: as §1

[4] = compound: CC1=NC(=CC=C1)C2=C(N=C(N2)C(C)(C)C)C3=CC4=NC=CN=C4C=C3
Procedure, shortened: as §1

Nexturastat A = compound: CCCCN(Cc1ccc(C(=O)NO)cc1)C(=O)Nc1ccccc1 [Nexturastat A]
Procedure, shortened: as §1

vemurafenib = compound: CCCS(=O)(=O)Nc1ccc(F)c(C(=O)c2c[nH]c3ncc(-c4ccc(Cl)cc4)cc23)c1F [vemurafenib]
Procedure, shortened: as §1

[5] = compound: CCCS(=O)(=O)Nc1ccc(F)c(C(=O)c2c[nH]c3ncc(Cl)cc23)c1F
Procedure, shortened: as §1

[6] = compound: CCCc1cc(C)[nH]c(=O)c1CNC(=O)c1cc(-c2ccnc(N3CCN(C)CC3)c2)cc2c1cnn2C(C)C
Procedure, shortened: as §1

givinostat = compound: CCN(CC)Cc1ccc2cc(COC(=O)Nc3ccc(C(=O)NO)cc3)ccc2c1 [givinostat]
Procedure, shortened: as §1

barasertib = compound: CCN(CCCOc1ccc2c(Nc3cc(CC(=O)Nc4cccc(F)c4)[nH]n3)ncnc2c1)CCOP(=O)(O)O [barasertib]
Procedure, shortened: as §1

Measured: log2 fold change

KPNA4 (UniProt O00629)
inactive: [1] 0.016 | [2] 0.007 | [3] 0.017 | [4] 0.045 | Nexturastat A -0.008 | vemurafenib 0.031 | [5] 0.038 | [6] 0.023 | givinostat 0.006 | barasertib 0.007

KCMF1 (UniProt Q9P0J7)
inactive: [1] -0.059 | [2] 0.02 | [3] -0.043 | [4] -0.02 | Nexturastat A 0.127 | vemurafenib -0.135 | [5] 0.203 | [6] 0.002 | givinostat 0.016 | barasertib -0.086

KLHDC4 (UniProt Q8TBB5)
inactive: [1] -0.027 | [2] -0.003 | [3] -0.007 | [4] -0.092 | Nexturastat A 0.18 | vemurafenib 0.096 | [5] 0.076 | [6] -0.223 | givinostat -0.011 | barasertib 0.028

JAG2 (UniProt Q9Y219)
inactive: [1] -0.349 | [2] 0.064 | [3] 0.024 | [4] -0.118 | Nexturastat A 0.132 | vemurafenib -0.104 | [5] -0.081 | givinostat 0.038 | barasertib 0.117

JUND (UniProt P17535)
inactive: [1] -0.004 | [2] 0.006 | [3] -0.066 | [4] -0.073 | Nexturastat A -0.04 | vemurafenib 0.003 | [5] 0.019 | [6] -0.002 | givinostat -0.053 | barasertib -0.016

KAT7 (UniProt O95251)
inactive: [1] -0.139 | [2] -0.101 | [3] -0.053 | [4] -0.185 | vemurafenib -0.013 | [5] 0.088 | [6] 0.075 | givinostat 0.29 | barasertib -0.01

KDELR1 (UniProt P24390)
inactive: [1] -0.271 | [2] -0.057 | [3] -0.037 | [4] -0.125 | Nexturastat A -0.145 | [5] -0.102 | [6] 0.048 | givinostat 0.085 | barasertib 0.118

KCNN4 (UniProt O15554)
inactive: [1] 0.054 | [2] 0.078 | [3] 0.032 | [4] -0.156 | vemurafenib 0.111 | [5] 0.133 | [6] -0.078 | givinostat 0.02 | barasertib -0.142

KHDRBS1 (UniProt Q07666)
inactive: [1] 0.086 | [2] -0.006 | [3] -0.082 | [4] 0.111 | Nexturastat A 0.077 | vemurafenib 0.075 | [5] -0.068 | [6] 0.034 | givinostat 0.005 | barasertib -0.106

Fetched one by one from the list above, two records:
KCNN4 (UniProt O15554)
inactive: [1] 0.054 | [2] 0.078 | [3] 0.032 | [4] -0.156 | vemurafenib 0.111 | [5] 0.133 | [6] -0.078 | givinostat 0.02 | barasertib -0.142

KDELR1 (UniProt P24390)
inactive: [1] -0.271 | [2] -0.057 | [3] -0.037 | [4] -0.125 | Nexturastat A -0.145 | [5] -0.102 | [6] 0.048 | givinostat 0.085 | barasertib 0.118

Next part.

KLHL11 (UniProt Q9NVR0)
inactive: [1] 0.04 | [2] 0.139 | [3] -0.021 | [4] 0.06 | Nexturastat A 0.009 | vemurafenib -0.078 | [5] -0.001 | [6] 0.044 | givinostat -0.012 | barasertib -0.002

KCNH2 (UniProt Q12809)
inactive: [1] 0.08 | [2] 0.158 | [3] 0.027 | Nexturastat A 0.277 | vemurafenib 0.068 | [5] 0.054 | [6] 0.051 | barasertib -0.112

KIAA2013 isoform 2 (UniProt Q8IYS2)
inactive: [1] -0.011 | [2] 0.028 | [3] -0.066 | [4] -0.002 | Nexturastat A -0.022 | vemurafenib -0.019 | [5] -0.082 | [6] -0.033 | givinostat -0.018 | barasertib 0

KPNA1 (UniProt P52294)
inactive: [1] -0.034 | [2] -0.056 | [3] -0.021 | [4] -0.041 | Nexturastat A 0.084 | vemurafenib 0.035 | [5] 0.026 | [6] 0.034 | givinostat 0.086 | barasertib 0.012

KLHL18 (UniProt O94889)
inactive: [1] -0.068 | [2] -0.009 | [3] 0.003 | Nexturastat A -0.099 | vemurafenib -0.05 | [5] -0.051 | [6] 0.06 | givinostat -0.049 | barasertib 0.11

KIF26A (UniProt Q9ULI4)
inactive: [1] 0.118 | [2] 0.083 | [3] -0.074 | [4] -0.069 | [5] -0.025 | [6] 0.021 | givinostat -0.006 | barasertib -0.004

KEAP1 (UniProt Q14145)
inactive: [1] -0.024 | [2] 0.032 | [3] 0.005 | [4] -0.009 | Nexturastat A 0.038 | vemurafenib 0.054 | [5] 0.101 | [6] 0.004 | givinostat 0.034 | barasertib 0.082

KCTD9 (UniProt Q7L273)
inactive: [1] -0.015 | [2] 0.001 | [3] -0.005 | [4] -0.001 | Nexturastat A -0.015 | vemurafenib 0.008 | [5] 0.028 | [6] 0.033 | givinostat 0.073 | barasertib 0.024

KBTBD4 isoform 2 (UniProt Q9NVX7)
inactive: [1] 0.04 | [2] -0.075 | [4] 0.067 | Nexturastat A 0.021 | vemurafenib 0.022 | [6] -0.011 | givinostat -0.013 | barasertib 0.065

KBTBD8 (UniProt Q8NFY9)
inactive: [1] 0.001 | [2] -0.052 | [3] -0.226 | [4] 0.133 | Nexturastat A 0.067 | vemurafenib 0.004 | [5] 0.028 | [6] 0.057 | barasertib 0.107

KLF1 (UniProt Q13351)
inactive: [1] -0.169 | [2] 0.015 | [3] -0.121 | [4] -0.048 | vemurafenib -0.079 | [5] -0.053 | [6] -0.014 | barasertib -0.235

KIF23 (UniProt Q02241)
inactive: [1] -0.039 | [2] 0.004 | [3] -0.006 | [4] -0.171 | Nexturastat A 0.035 | vemurafenib 0.128 | [5] -0.211 | [6] -0.072 | givinostat 0.183 | barasertib 0.082

KLHDC3 (UniProt Q9BQ90)
inactive: [1] 0.064 | [2] -0.021 | [3] 0.065 | [4] -0.039 | Nexturastat A 0.074 | vemurafenib -0.01 | [5] -0.003 | givinostat 0.105 | barasertib -0.023

KISS1R (UniProt Q969F8)
inactive: [1] -0.09 | [2] 0.07 | [3] -0.377 | [4] 0.038 | Nexturastat A -0.028 | [5] -0.061 | [6] 0.092 | givinostat 0.022 | barasertib -0.082

KIAA1191 (UniProt Q96A73)
inactive: [1] -0.016 | [2] -0.037 | [3] 0.019 | [4] 0.001 | Nexturastat A 0 | vemurafenib 0.005 | [5] -0.034 | [6] -0.03 | givinostat 0.083 | barasertib 0.059
